# Experimental data taken from the supplement of paper PMC8728848.
# The other results are listed elsewhere or left out.
# B1: SUN4 (Saccharomyces cerevisiae), P53616 (protein)
# chain: MGSSHHHHHHSSGLVPRGSHNGSIYGDLADFSGPYEKFEDGTIPCGQFPSGQGVIPISWLDEGGWSGVENTDTSTGGSCKEGSYCSYACQPGMSKTQWPSDQPSDGRSIGGLLCKDGYLYRSNTDTDYLCEWGVDAAYVVSELSNDVAICRTDYPGTENMVIPTYVQAGDSLPLTVVDQDTYYTWQGLKTSAAYYVNNAGISVEDACVWGSSSSGVGNWAPLNFGAGSSDGVAYLSLIPNPNNGNALNFNVKIVAADDSSTVNGECIYENGSFSGGSDGCTVSVTAGKAKFVLYN
# What was measured:
# Test in all cases: glycan array binding signal (z-score within array); higher = stronger binding
# Settings in all cases: glycan notation: IUPAC condensed, linker removed; mutation: Q318A
# GlcNAc(b1-3)GalNAc = target: GlcNAc(b1-3)GalNAc
# Procedure, shortened: (§1)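 Glycan array binding is given as a within-array Z-score, which can be read as non-binding when negative. The arrays, 3228 of them, came from the Consortium for Functional Glycomics database and were retained only where the protein sequence was available. Z-scores were averaged across arrays of the same protein sequence at different concentrations or buffers and across linkers.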
# GlcNAc(b1-3)Man = target: GlcNAc(b1-3)Man
# Procedure, shortened: as §1
# [1] = target: GlcNAc(b1-3)[GlcNAc(b1-4)][GlcNAc(b1-6)]GlcNAc
# Procedure, shortened: as §1
# [2] = target: GlcNAc(b1-3)[GlcNAc(b1-6)]Gal(b1-4)GlcNAc
# Procedure, shortened: as §1
# [3] = target: GlcNAc(b1-3)[GlcNAc(b1-6)]GalNAc
# Procedure, shortened: as §1
# [4] = target: GlcNAc(b1-4)Gal(b1-4)GlcNAc
# Procedure, shortened: as §1
# GlcNAc(b1-4)GlcNAc = target: GlcNAc(b1-4)GlcNAc
# Procedure, shortened: as §1
# [5] = target: GlcNAc(b1-4)GlcNAc(b1-4)GlcNAc
# Procedure, shortened: as §1
# [6] = target: GlcNAc(b1-4)GlcNAc(b1-4)GlcNAc(b1-4)GlcNAc(b1-4)GlcNAc
# Procedure, shortened: as §1
# [7] = target: GlcNAc(b1-4)GlcNAc(b1-4)GlcNAc(b1-4)GlcNAc(b1-4)GlcNAc(b1-4)GlcNAc
# Procedure, shortened: as §1
# [8] = target: GlcNAc(b1-4)[GlcNAc(b1-6)]GalNAc
# Procedure, shortened: as §1
# [9] = target: GlcNAc(b1-6)Gal(b1-4)GlcNAc
# Procedure, shortened: as §1
# GlcNAc(b1-6)GalNAc = target: GlcNAc(b1-6)GalNAc
# Procedure, shortened: as §1
# [10] = target: GlcNAc6S(b1-3)Gal(b1-4)GlcNAc
# Procedure, shortened: as §1
# Kdn(a2-3)Gal(b1-3)GalNAc = target: Kdn(a2-3)Gal(b1-3)GalNAc
# Procedure, shortened: as §1
# Kdn(a2-3)Gal(b1-3)GlcNAc = target: Kdn(a2-3)Gal(b1-3)GlcNAc
# Procedure, shortened: as §1
# Kdn(a2-3)Gal(b1-4)Glc = target: Kdn(a2-3)Gal(b1-4)Glc
# Procedure, shortened: as §1
# Kdn(a2-3)Gal(b1-4)GlcNAc = target: Kdn(a2-3)Gal(b1-4)GlcNAc
# Procedure, shortened: as §1
# [11] = target: Kdn(a2-3)Gal(b1-4)[Fuc(a1-3)]GlcNAc
# Procedure, shortened: as §1
# Kdn(a2-6)Gal(b1-4)GlcNAc = target: Kdn(a2-6)Gal(b1-4)GlcNAc
# Procedure, shortened: as §1
# [12] = target: Man(a1-2)Man(a1-2)Man(a1-3)Man
# Procedure, shortened: as §1
# [13] = target: Man(a1-2)Man(a1-2)Man(a1-6)[Man(a1-3)]Man
# Procedure, shortened: as §1
# Man(a1-2)Man(a1-3)Man = target: Man(a1-2)Man(a1-3)Man
# Procedure, shortened: as §1
# [14] = target: Man(a1-2)Man(a1-3)[Man(a1-2)Man(a1-6)]Man
# Procedure, shortened: as §1
# [15] = target: Man(a1-2)Man(a1-3)[Man(a1-2)Man(a1-6)]Man(a1-6)[Man(a1-2)Man(a1-2)Man(a1-3)]Man
# Procedure, shortened: as §1
# [16] = target: Man(a1-2)Man(a1-3)[Man(a1-2)Man(a1-6)]Man(a1-6)[Man(a1-2)Man(a1-2)Man(a1-3)]Man(b1-4)GlcNAc(b1-4)GlcNAc
# Procedure, shortened: as §1
# [17] = target: Man(a1-2)Man(a1-3)[Man(a1-6)]Man(a1-6)[Man(a1-2)Man(a1-3)]Man(b1-4)GlcNAc(b1-4)GlcNAc
# Procedure, shortened: as §1
# [18] = target: Man(a1-2)Man(a1-6)[Man(a1-3)]Man(a1-6)[Man(a1-2)Man(a1-2)Man(a1-3)]Man
# Procedure, shortened: as §1
# [19] = target: Man(a1-2)Man(a1-6)[Man(a1-3)]Man(a1-6)[Man(a1-2)Man(a1-2)Man(a1-3)]Man(b1-4)GlcNAc(b1-4)GlcNAc
# Procedure, shortened: as §1
# Man(a1-3)[Man(a1-6)]Man = target: Man(a1-3)[Man(a1-6)]Man
# Procedure, shortened: as §1
# [20] = target: Man(a1-3)[Man(a1-6)]Man(a1-6)[Man(a1-2)Man(a1-3)]Man(b1-4)GlcNAc(b1-4)GlcNAc
# Procedure, shortened: as §1
# [21] = target: Man(a1-3)[Man(a1-6)]Man(a1-6)[Man(a1-3)]Man
# Procedure, shortened: as §1
# [22] = target: Man(a1-3)[Man(a1-6)]Man(a1-6)[Man(a1-3)]Man(b1-4)GlcNAc(b1-4)GlcNAc
# Procedure, shortened: as §1
# [23] = target: Man(a1-3)[Man(a1-6)]Man(b1-4)GlcNAc(b1-4)GlcNAc
# Procedure, shortened: as §1
# [24] = target: Man(a1-3)[Man(a1-6)]Man(b1-4)GlcNAc(b1-4)[Fuc(a1-6)]GlcNAc
# Procedure, shortened: as §1
# Man(a1-6)Man = target: Man(a1-6)Man
# Procedure, shortened: as §1
# Man(b1-4)GlcNAc = target: Man(b1-4)GlcNAc
# Procedure, shortened: as §1
# MurNAc(b1-4)GlcNAc = target: MurNAc(b1-4)GlcNAc
# Procedure, shortened: as §1
binder,measurement,setting,value
B1,glycan array binding signal (z-score),GlcNAc(b1-3)GalNAc,-0.258
same,glycan array binding signal (z-score),GlcNAc(b1-3)Man,-0.628
same,glycan array binding signal (z-score),[1],-1.08
same,glycan array binding signal (z-score),[2],0.221
same,glycan array binding signal (z-score),[3],-0.145
same,glycan array binding signal (z-score),[4],0.394
same,glycan array binding signal (z-score),GlcNAc(b1-4)GlcNAc,0.016
same,glycan array binding signal (z-score),[5],0.057
same,glycan array binding signal (z-score),[6],-1.7
same,glycan array binding signal (z-score),[7],-0.051
same,glycan array binding signal (z-score),[8],0.606
same,glycan array binding signal (z-score),[9],-0.7
same,glycan array binding signal (z-score),GlcNAc(b1-6)GalNAc,-0.369
same,glycan array binding signal (z-score),[10],-0.102
same,glycan array binding signal (z-score),Kdn(a2-3)Gal(b1-3)GalNAc,-0.503
same,glycan array binding signal (z-score),Kdn(a2-3)Gal(b1-3)GlcNAc,-0.088
same,glycan array binding signal (z-score),Kdn(a2-3)Gal(b1-4)Glc,0.215
same,glycan array binding signal (z-score),Kdn(a2-3)Gal(b1-4)GlcNAc,0.246
same,glycan array binding signal (z-score),[11],0.551
same,glycan array binding signal (z-score),Kdn(a2-6)Gal(b1-4)GlcNAc,-0.753
same,glycan array binding signal (z-score),[12],-0.319
same,glycan array binding signal (z-score),[13],0.965
same,glycan array binding signal (z-score),Man(a1-2)Man(a1-3)Man,-0.107
same,glycan array binding signal (z-score),[14],-1.1
same,glycan array binding signal (z-score),[15],0.282
same,glycan array binding signal (z-score),[16],-0.41
same,glycan array binding signal (z-score),[17],0.026
same,glycan array binding signal (z-score),[18],-0.156
same,glycan array binding signal (z-score),[19],-0.126
same,glycan array binding signal (z-score),Man(a1-3)[Man(a1-6)]Man,0.362
same,glycan array binding signal (z-score),[20],1.08
same,glycan array binding signal (z-score),[21],1.55
same,glycan array binding signal (z-score),[22],0.133
same,glycan array binding signal (z-score),[23],-0.143
same,glycan array binding signal (z-score),[24],0.346
same,glycan array binding signal (z-score),Man(a1-6)Man,0.001
same,glycan array binding signal (z-score),Man(b1-4)GlcNAc,0.21
same,glycan array binding signal (z-score),MurNAc(b1-4)GlcNAc,0.75

# Two consecutive records out of the list so far, for reference:
binder,measurement,setting,value
B1,glycan array binding signal (z-score),Kdn(a2-3)Gal(b1-3)GalNAc,-0.503
same,glycan array binding signal (z-score),Kdn(a2-3)Gal(b1-3)GlcNAc,-0.088
